{
  "source": "PubChem BioAssay AID504834",
  "about": "(National Center for Advancing Translational Sciences (NCATS), 2011)",
  "note": "About 22,000 (6.9%) of roughly 320,000 compounds were called active. Inconclusive results, whose numbers are uncertain, are shown with a selection of clear calls. The call rests on the fitted dose curve; in most records, active means well fitted inhibition curve with a large enough effect; inconclusive means small, poorly fitted or top-dose-only effect, or another doubt; inactive means no such curve, though single readings can be large or run the other way. Where the call is inconclusive, the potency comes from a doubtful curve fit. Potency means the concentration at half of the fitted maximal effect.",
  "data": [
    {"experiment": "Primary qHTS for delayed death inhibitors of the malarial parasite plastid, 96 hour incubation", "conditions": "P. falciparum luciferase reporter growth; series mostly up to 28.7 µM", "procedure,_shortened": "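Cell-based qHTS: luciferase-tagged P. falciparum in erythrocytes (2% hematocrit, 0.05% parasitemia final) incubated with compounds for 96 hours, 37 C, 5% CO2; luciferase detection reagent then added and luminescence measured.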", "values": [
      {"compound": "CCCN(Cc1nnc(-c2cccs2)o1)C(=O)CN1C(=O)NC2(CCCCC2)C1=O", "Potency": "inactive"},
      {"compound": "COc1ccccc1NC(=O)COc1ccc(C(=O)NCc2ccccc2)cc1OC", "Potency": "inconclusive: 13.1 µM [inhibitor, single point]"},
      {"compound": "COCCCNC(=O)CCCn1c(=O)[nH]c2ccccc2c1=O", "Potency": "inconclusive: 18.5 µM [inhibitor, single point]"},
      {"compound": "Cc1ccc(NC2CCCN(C(=O)c3ccnc(Cl)c3)C2)cc1C", "note": "(stereo not given)", "Potency": "inactive"},
      {"compound": "Cn1cnnc1SC(C(=O)Nc1cccc(C(F)(F)F)c1)c1ccccc1", "note": "(stereo not given)", "Potency": "inconclusive: 18.5 µM [inhibitor, single point]"},
      {"compound": "C[C@H]1C[C@H]2[C@@H]3CCC4=CC(=O)C=C[C@]4(C)[C@@]3(F)[C@@H](O)C[C@]2(C)[C@@]1(O)C(=O)CO", "Potency": "inconclusive: 3.01 µM [inhibitor, partial curve]"},
      {"compound": "C=CCNC(=O)c1cc(Cl)cc(Cl)c1", "Potency": "inactive"},
      {"compound": "Cc1cccc(-n2c(O)c(C=Nc3ccccc3)c3ccccc3c2=O)n1", "Potency": "inactive"},
      {"compound": "Cc1c(Br)c([N+](=O)[O-])nn1CCCC(=O)Nc1c(C)n(C)n(-c2ccccc2)c1=O", "Potency": "inconclusive: 18.5 µM [inhibitor, single point]"},
      {"compound": "CC(C)(C)c1cc(Cl)c(O)c(NC(=S)NC(=O)c2cccnc2)c1", "Potency": "inactive"},
      {"compound": "CC[n+]1c(C)n(C)c2cc(S(=O)(=O)N(C)C)ccc21", "Potency": "inactive"},
      {"compound": "COc1ccc(CCN2C(=NC(=O)CCC(=O)O)SC3CS(=O)(=O)CC32)cc1", "note": "(stereo not given)", "Potency": "inactive"},
      {"compound": "O=[N+]([O-])c1ccc(NC2CCCC2)cc1", "Potency": "inactive"},
      {"compound": "COc1cccc(NC(=O)C(NCC2CCCCC2)c2ccccc2)c1", "note": "(stereo not given)", "Potency": "inconclusive: 10.4 µM [inhibitor, partial curve, poor fit]"},
      {"compound": "O=C(CSc1nnc(-c2cccs2)n1Cc1ccccc1)NCc1ccc2c(c1)OCO2", "Potency": "inconclusive: 0.262 µM [inhibitor, full curve, poor fit]"},
      {"compound": "CCOC(=O)c1cc(-c2ccc(OC)cc2OC)nn1-c1ccc(C(=O)O)cc1", "Potency": "inconclusive: 0.415 µM [inhibitor, full curve, poor fit]"},
      {"compound": "Cc1cccc[n+]1CC(=O)Nc1ccccc1", "Potency": "inconclusive: 14.7 µM [inhibitor, partial curve, poor fit]"},
      {"compound": "CCOP(=O)(OCC)C(NC(=O)Nc1ccc(Cl)c(Cl)c1)c1ccccc1", "note": "(stereo not given)", "Potency": "inconclusive: 13.1 µM [inhibitor, single point]"},
      {"compound": "CCCOC(=O)Nc1c(C)cccc1C(C)C", "Potency": "inactive"},
      {"compound": "CN(C(=O)Nc1ccc(Cl)cc1Cl)[C@H]1c2cc(Br)ccc2OC[C@H]1CO", "Potency": "inconclusive: 5.22 µM [inhibitor, partial curve, poor fit]"},
      {"compound": "CCc1ccc(NC(=O)C2CCCN(S(=O)(=O)c3ccc4[nH]c(=O)ccc4c3)C2)cc1", "note": "(stereo not given)", "Potency": "inconclusive: 18.5 µM [inhibitor, single point]"},
      {"compound": "Cc1cccc(OC(C)C(=O)N2CCc3ccccc3C2)c1", "note": "(stereo not given)", "Potency": "inconclusive: 10.4 µM [inhibitor, partial curve, poor fit]"},
      {"compound": "COP(=O)(OC)C(Nc1ccccn1)c1ccccc1", "note": "(stereo not given)", "Potency": "inconclusive: 0.0029 µM [inhibitor, full curve, poor fit]"},
      {"compound": "N#CC1=C(N)Oc2c(ccc3cccnc23)C1c1ccccc1", "note": "(stereo not given)", "Potency": "inconclusive: 14.7 µM [inhibitor, single point]"},
      {"compound": "CC(C)(C)c1ccc(OCCC(=O)OCC(=O)NC(=O)NC2CCCC2)cc1", "Potency": "inactive"},
      {"compound": "O=C(Cc1ccc([N+](=O)[O-])cc1)Nc1ccc(C(=O)N2CCOCC2)cc1", "Potency": "inconclusive: 18.5 µM [inhibitor, single point]"},
      {"compound": "Cc1cccc(NC(=O)CCN2CCC(C(N)=O)CC2)c1", "Potency": "active: 6.57 µM"},
      {"compound": "Cc1ccc(C(=O)OC(C)C(=O)NC2CCCCC2)cc1S(=O)(=O)N1CCCCC1", "note": "(stereo not given)", "Potency": "inconclusive: 18.5 µM [inhibitor, single point]"},
      {"compound": "O=C(NCCc1ccccc1)C1CCN(C2CCN(C(=O)CC3=CCCCC3)CC2)CC1", "Potency": "inactive"},
      {"compound": "Cc1occc1C(=O)NNC(=O)C(c1ccccc1)c1ccccc1", "Potency": "inconclusive: 2.33 µM [inhibitor, partial curve, poor fit]"},
      {"compound": "COc1ccccc1C(=O)N/N=C(\\C)CC(=O)Nc1ccc2c(c1)OCCO2", "Potency": "inconclusive: 2.08 µM [inhibitor, single point]"},
      {"compound": "C/C(=N\\NC(=O)c1ccc(C)cc1C)c1ccc(-n2ccnc2)cc1", "Potency": "inconclusive: 13.1 µM [inhibitor, single point]"},
      {"compound": "Cc1ccccc1N1CCN(C(=S)c2ccc(-c3cccc([N+](=O)[O-])c3)o2)CC1", "Potency": "inconclusive: 18.5 µM [inhibitor, single point]"},
      {"compound": "O=C(C[n+]1ccccn1)c1ccccc1", "Potency": "inconclusive: 18.5 µM [inhibitor, single point]"},
      {"compound": "CC1CC(NC(=O)/C(C#N)=C/c2ccc[nH]2)CC(C)(C)C1", "note": "(stereo not given)", "Potency": "active: 3.29 µM"},
      {"compound": "CC(=O)COc1ccc2c3c(c(=O)oc2c1C)CCCCC3", "Potency": "inconclusive: 9.28 µM [inhibitor, partial curve]"},
      {"compound": "Cc1ccc(/C=C/C(=O)NCCCn2ccnc2)cc1", "Potency": "inactive"},
      {"compound": "CCC1CN(C(=O)NCc2ccc(F)cc2)c2cc(C)ccc2O1", "note": "(stereo not given)", "Potency": "inconclusive: 18.5 µM [inhibitor, single point]"},
      {"compound": "O=C(CSc1ncn[nH]1)c1ccccc1", "Potency": "inactive"},
      {"compound": "CC(=O)c1ccccc1NC(=O)c1cc(S(=O)(=O)N2CCOCC2)ccc1N1CCCC1", "Potency": "inconclusive: 18.5 µM [inhibitor, single point]"},
      {"compound": "Oc1ccccc1CN1CCN(C(c2ccccc2)c2ccccc2)CC1", "Potency": "active: 0.828 µM"},
      {"compound": "Cc1ccc2c(c1)NC(=O)C(CC(=O)N(C)Cc1ccccc1)O2", "note": "(stereo not given)", "Potency": "inconclusive: 5.22 µM [inhibitor, partial curve]"},
      {"compound": "Cc1cc(C)c2nc(N3CCCN(C(=O)c4ccco4)CC3)c(C#N)cc2c1", "Potency": "inconclusive: 18.5 µM [inhibitor, single point]"},
      {"compound": "O=C(N=c1ccn(-c2nc3ccccc3nc2NS(=O)(=O)c2ccccc2)cc1)c1cccs1", "Potency": "inconclusive: 18.5 µM [inhibitor, single point]"},
      {"compound": "CC[C@H](C)[C@H](NC(N)=O)C(=O)NCCc1ccc(OC)c(OC)c1", "Potency": "inactive"}
    ]}
  ]
}
